Measurements: PubChem BioAssay AID624297 (National Center for Advancing Translational Sciences (NCATS), 2012)
Out of some 340,000 compounds screened, about 6,200 (1.8%) were called active. Inconclusive results, whose numbers are uncertain, are shown with a selection of clear calls. The call rests on the fitted dose curve; in most records, active means well fitted activation curve with a large enough effect; inconclusive means small, poorly fitted or top-dose-only effect; inactive means no such curve, though single readings can be large or run the other way. Potencies of inconclusive entries are doubtful fits and often do not repeat.

assay: A quantitative high throughput screen for small molecules that induce DNA re-replication in SW480 colon adenocarcinoma cells.; further: nearly all actives have a fitted effect of over 55% in size; on re-replication activation: % of control where 0% means no effect; conditions: Hoechst DNA content imaging, 48 h; re-replication activation: at 46.1 µM (top of the series) unless noted
Summary of the method: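 DNA re-replication was detected as more nuclei of elevated Hoechst intensity after 48 hr exposure to compound (23 nL pinned per well of 250 cells).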
Potency means the concentration at half of the fitted maximal effect.

Structure (SMILES) | Potency | re-replication activation
Cc1ccc(NC(=O)c2ccc(Cl)nc2)cc1S(=O)(=O)N1CCOCC1 | inconclusive: 14.6 µM [activator, single point] | –
Nc1c(C(=O)NCCN2CCOCC2)c2nc3ccccc3nc2n1-c1cccc(F)c1 | active: 16.4 µM | –
CCOC(=O)C1(Cc2ccccc2C(F)(F)F)CCN(C(C)CSC)CC1 (centres undefined) | – | inactive: -16.5%
Cc1cc(C)cc(NC2=CC(=O)CC(c3ccco3)C2)c1 (centres undefined) | – | inactive: 10.5%
CN(C)S(=O)(=O)c1cccc(-n2sc3ccccc3c2=O)c1 | inconclusive: 10.3 µM [activator, partial curve, poor fit] | –
CC(C)COc1ccc(C(=O)CCN2CCCCC2)cc1 | inconclusive: 18.4 µM [activator, single point] | –
Cc1sc2nc(C)n(/N=C/N(C)C)c(=O)c2c1C | active: 14.6 µM | –
Cc1ccc2c(Cl)cc(Cl)c(OCC(=O)N(C(C)C)C(C)C)c2n1 | – | inactive: -3.12%
CCS(=O)(=O)Nc1ccc(C2=NN(C(=S)Nc3ccccc3)C(c3ccco3)C2)cc1 (centres undefined) | inconclusive: 29.1 µM [activator, single point] | –
CCCc1cc(C(=O)N/N=C/c2ccc(C)o2)c2ccccc2n1 | inconclusive: 18.4 µM [activator, single point] | –
CN1C2CCC1CC(NS(=O)(=O)c1cc(Cl)c(Cl)cc1Cl)C2 (centres undefined) | – | inactive: 0.152%
COc1cc(OC)c2c(-c3ccccc3)cc(=O)oc2c1C(CCN1CCOCC1)c1ccc(N(C)C)cc1 (centres undefined) | inconclusive: 29.1 µM [activator, single point] | –
COc1ccc(C)cc1NC(=O)C(NC(=O)c1cc(OC)c(OC)c(OC)c1)C(C)C (centres undefined) | inconclusive: 0.0052 µM [activator, full curve, poor fit] | –
Cn1c(CCN2CCOCC2)nc2cc(NS(=O)(=O)c3ccccc3)ccc21 | inconclusive: 23.1 µM [activator, single point] | –
C/C(=N/NC(=O)c1ccc(Cl)cc1Cl)c1cccnc1 | inconclusive: 20.6 µM [activator, single point] | –
CC(=NNc1ccc([N+](=O)[O-])cn1)c1ccccc1 | – | inactive: -11.4%
C[C@@H]1CC=C[C@H]2[C@H]1C(=O)N(Cc1ccccc1)[C@H]2c1ccc(Br)cc1F | inconclusive: 0.58 µM [activator, partial curve, poor fit] | –
CC(C)CCN1C(=O)c2cccc3c(N)ccc(c23)C1=O | active: 23.1 µM | –
C=CCN1C(=O)/C(=C/c2ccc(O)c(OC)c2)S/C1=N/c1nccs1 | inconclusive: 16.4 µM [activator, partial curve] | –
CN(C)C(CNC(=O)c1cccc(S(=O)(=O)N2CCN(c3ccc(F)cc3)CC2)c1)c1ccccc1 (centres undefined) | inconclusive: 23.1 µM [activator, single point] | –
CCOc1ccc(CCNC(=O)c2ccc3c(=O)n4c(nc3c2)CCCCC4)cc1 | inconclusive: 4.11 µM [activator, full curve] | –
COc1ccc(C)cc1N(C(=O)c1snc(C(N)=O)c1N)C(C(=O)NC1CCCCC1)c1ccc(C)o1 (centres undefined) | inconclusive: 18.4 µM [activator, single point] | –

Structure (SMILES) | Potency | re-replication activation
Cc1cc(/C=N/NC(=O)c2ccncc2)c(C)n1-c1cccc(C(F)(F)F)c1 | – | inactive: -9.91%
COc1ccc(NC(=O)CNS(=O)(=O)c2ccccc2)cc1Cl | inconclusive: 3.26 µM [activator, full curve] | –
CC(C)CCC(CCNCc1ccccn1)c1ccc(Cl)cc1 (centres undefined) | inconclusive: 20.6 µM [activator, single point] | –
OC(CCCN1CCCCC1)(c1ccccc1)c1ccc(C(F)(F)F)cc1 (centres undefined) | inconclusive: 23.1 µM [activator, single point] | –
Cc1cc(C)c(S(=O)(=O)c2ccc(Cl)cc2)c(Cl)n1 | – | inactive: -2.27%
C=CCSc1nnc(-c2cc3c(s2)-c2ccccc2CC3)o1 | inconclusive: 29.1 µM [activator, single point] | –
CCOC(=O)C1=C(CS(=O)(=O)c2ccc(F)cc2)NC(=O)NC1c1ccc(O)c(O)c1 (centres undefined) | – | inactive: -11.7%
Cc1nn(C(C)C(=O)Nc2sc3c(c2C#N)CCCC3)c(C)c1[N+](=O)[O-] (centres undefined) | inconclusive: 0.206 µM [activator, full curve, poor fit] | –
Cc1ccc(/C=N/NC(=O)Cn2cnc3ccccc32)cc1 | inconclusive: 29.1 µM [activator, single point] | –
O=C(/C=C/c1ccc(F)cc1)Nc1cccc(S(=O)(=O)N2CCOCC2)c1 | – | inactive: -5.42%
Cc1ccc(-n2nc3cc(C)c(NC(=S)NC(=O)/C=C/c4ccco4)cc3n2)cc1 | active: 3.66 µM | –
O=C(Cc1nnc(NC(=O)Nc2ccc(F)cc2)s1)Nc1ccccc1 | – | inactive: -4.64%
CCOC(=O)C/C(N)=N/NC(=O)c1ccc(Cl)cc1Cl | inconclusive: 13 µM [activator, partial curve, poor fit] | –
CCCCn1nnc(NC(=O)c2ccco2)n1 | – | inactive: -17.7%
COc1cc(N)c(Cl)cc1C(=O)N[C@H]1CCN(CCCOc2ccc(F)cc2)C[C@H]1OC | inactive | –
Oc1ccc(C=Nc2cccc3ccccc23)c(O)c1 | inconclusive: 29.1 µM [activator, partial curve, poor fit] | –
CCC1C(=O)C[C@H]2CCN3C(=O)CCCC1C23 (some centres undefined) | – | inactive: 2.65%
O=C(CCCCCn1c(=S)[nH]c2ccc(N3CCOCC3)cc2c1=O)NCc1cccc(Cl)c1 | inconclusive: 23.1 µM [activator, partial curve, poor fit] | –
CCOC(=O)c1[nH]c(C)c(CN(Cc2ccco2)C(=O)C(F)(F)F)c1C | inconclusive: 18.4 µM [activator, single point] | –
C=CCC[C@H](Cc1ccc(F)cc1)C(=O)OC[C@@H](NC(=O)[C@@H](CC=C)CC(=O)N[C@@H](CO)Cc1ccccc1)C(C)(C)C | inconclusive: 29.1 µM [activator, single point] | –
COc1ccc(-n2cnnc2SCC(=O)NC2CCCCC2)cc1 | – | inactive: 3.02%
O=S(=O)(c1ccc(-c2csc(-c3cccnc3)n2)cc1)N1CCCC1 | inconclusive: 29.1 µM [activator, single point] | –

Grouped by structure, the entries above containing a thiophene ring, fused or not (3)
Structure (SMILES) | Potency | re-replication activation
Cc1sc2nc(C)n(/N=C/N(C)C)c(=O)c2c1C | active: 14.6 µM | –
C=CCSc1nnc(-c2cc3c(s2)-c2ccccc2CC3)o1 | inconclusive: 29.1 µM [activator, single point] | –
Cc1nn(C(C)C(=O)Nc2sc3c(c2C#N)CCCC3)c(C)c1[N+](=O)[O-] (centres undefined) | inconclusive: 0.206 µM [activator, full curve, poor fit] | –
